# Data source: PubChem BioAssay AID602196 (INSERM, 2012)
# Screen: 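Genes whose knock-down alters cisplatin killing of lung cancer cells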
# Cells: human A549 lung cancer cells
# Reagent: siRNA pair against human genes
# Time to read-out: 48 h transfection before cisplatin; time from cisplatin to read-out not stated
# Challenge: cisplatin at a dose killing half of control-siRNA cells; exact dose and duration not given
# Measured: 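Cisplatin cell death as a shift from the 50% death seen with control siRNA; siRNAs toxic or growth-blocking alone scored 0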
# Scale: two-siRNA summed score (-2 to +2): higher = both siRNAs protect from cisplatin killing; -2 means both sensitise; mean protection from cisplatin (shift in death): higher = protection from cisplatin killing
# Hit rule: 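siRNAs harmful alone (LDH or WST-1) get 0; others get +1 for less and -1 for more cisplatin killing; genes are active when the two siRNAs give the same sign, summing to ±2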
# Meaning of the calls: active = both siRNAs shift cisplatin killing the same way; inactive = no consistent shift, or siRNA harmful alone
# The deposit covers about 23,000 reagents; shown is a random part of them. In the full data, 455 (2%) are marked active. 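Active includes both protection and sensitisation; some change values fall well beyond the stated -50 to +50 range.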 Entries without a mark were called inactive. Not all columns of the deposit are shown. Reagent sequences are not shown. Not stated in the record: the amount of reagent.
Target gene,two-siRNA summed score (-2 to +2),mean protection from cisplatin (shift in death) (%)
NMU (GeneID 10874),-1,-15.7
GAP43 (GeneID 2596),0,0.4
GABARAP (GeneID 11337),0,-11.8
SMURF1 (GeneID 57154),-1,-14.7
EI24 (GeneID 9538),0,9.9
FIBCD1 (GeneID 84929),0,13.1
ARF3 (GeneID 377),1,14
LMAN1L (GeneID 79748),0,-1.6
VPS33A (GeneID 65082),0,9.2
SNAP25 (GeneID 6616),0,-11.2
GLUD1 (GeneID 2746),0,6.6
MROH5 (GeneID 389690),0,3.2
TAF13 (GeneID 6884),0,11.5
CDK5RAP2 (GeneID 55755),0,5.3
AGTR2 (GeneID 186),0,3.4
SMARCA2 (GeneID 6595),0,-1.6
MORC2-AS1 (GeneID 150291),0,6.1
PROK2 (GeneID 60675),0,6.6
LIPC (GeneID 3990),-1,-13.2
TMEM59 (GeneID 9528),0,7.3
KLHL13 (GeneID 90293),0,12.7
LOC388135,1,8.2
IRF6 (GeneID 3664),0,7.4
CPO (GeneID 130749),1,8.5
RAB1B (GeneID 81876),0,-0.4
LOC440975,0,2.7
OTUD1 (GeneID 220213),1,5.3
LEPR (GeneID 3953),0,-3.8
NUDT16 (GeneID 131870),0,5.6
CXXC5 (GeneID 51523),0,6.5
ARMC1 (GeneID 55156),0,-2.8
OR10A6 (GeneID 390093),1,5.6
LHFPL7 (GeneID 255349),0,3.2
KRIT1 (GeneID 889),-1,-4.6
LY75 (GeneID 4065),0,-1
CAV1 (GeneID 857),0,8.3
ASF1B (GeneID 55723),0,7.6
ATRAID (GeneID 51374),0,3.3
RIDA (GeneID 10247),-1,-5.7
PIWIL1 (GeneID 9271),0,-0.4
SVOP (GeneID 55530),0,5.3
LOC441055,0,-2.9
PITPNC1 (GeneID 26207),0,3.5
APOL3 (GeneID 80833),0,7.8
GNAI3 (GeneID 2773),0,-5.3
GCH1 (GeneID 2643),0,3.1
TCF7L2 (GeneID 6934),-1,-10.7
MCUB (GeneID 55013),0,-0.4
LOC389230,0,16.8
MLC1 (GeneID 23209),0,-0.4
WDR75 (GeneID 84128),0,9.8
LOC343295,0,-14.2
SLC61A1 (GeneID 84975),0,-5.7
LOC400388,1,12.2
STAC (GeneID 6769),1,19.8
LOC440002,0,5.9
GJC1 (GeneID 10052),0,5.5

Reprinted from the listing for reference:
Target gene,two-siRNA summed score (-2 to +2),mean protection from cisplatin (shift in death) (%)
NMU (GeneID 10874),-1,-15.7
GAP43 (GeneID 2596),0,0.4
GABARAP (GeneID 11337),0,-11.8
SMURF1 (GeneID 57154),-1,-14.7
EI24 (GeneID 9538),0,9.9
FIBCD1 (GeneID 84929),0,13.1
ARF3 (GeneID 377),1,14
LMAN1L (GeneID 79748),0,-1.6
VPS33A (GeneID 65082),0,9.2
SNAP25 (GeneID 6616),0,-11.2
